The subject of this experiment is BDF1 mice, B16 melanoma ip, median survival T/C. Put plainly: NCI In Vivo Anticancer Drug Screen. Data for tumor model B16 Melanoma (intraperitoneal) in B6D2F1 (BDF1) mice. The conditions noted are these: T/C endpoint: median survival time, higher T/C = longer survival. In short, it runs like this: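 Tumor-bearing mice received test compound or vehicle. Survival or tumor size was then measured in both groups. The treated-group figure was divided by the control-group figure.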

Setting [1] is: dose: 200.0 mg/kg/injection, schedule: Q01DX009 (ip), vehicle: saline.
Setting [2] is: dose: 25.0 mg/kg/injection, schedule: Q01DX009 (ip), vehicle: Klucel (hydroxypropylcellulose) (HPC).
Where [3] appears, read: dose: 50.0 mg/kg/injection, schedule: Q01DX009 (ip), vehicle: Klucel (hydroxypropylcellulose) (HPC).
[4] abbreviates: dose: 400.0 mg/kg/injection, schedule: Q01DX009 (ip), vehicle: Klucel (hydroxypropylcellulose) (HPC).
Setting [5] is: dose: 100.0 mg/kg/injection, schedule: Q01DX009 (ip), vehicle: Klucel (hydroxypropylcellulose) (HPC).
Where [6] appears, read: dose: 200.0 mg/kg/injection, schedule: Q01DX009 (ip), vehicle: Klucel (hydroxypropylcellulose) (HPC).
[7] abbreviates: dose: 200.0 mg/kg/injection, schedule: Q04DX003 (ip), vehicle: Klucel (hydroxypropylcellulose) (HPC).
Where [8] appears, read: dose: 1.56 mg/kg/injection, schedule: Q01DX009 (ip), vehicle: saline with Tween-80.
[9] abbreviates: dose: 25.0 mg/kg/injection, schedule: Q01DX009 (ip), vehicle: saline with Tween-80.
[10] abbreviates: dose: 50.0 mg/kg/injection, schedule: Q01DX009 (ip), vehicle: saline with Tween-80.
Where [11] appears, read: dose: 6.25 mg/kg/injection, schedule: Q01DX009 (ip), vehicle: saline with Tween-80.
Setting [12] is: dose: 100.0 mg/kg/injection, schedule: Q01DX009 (ip), vehicle: saline with Tween-80.
The mark [13] stands for this setting: dose: 200.0 mg/kg/injection, schedule: Q01DX009 (ip), vehicle: saline with Tween-80.
Setting [14] is: dose: 12.5 mg/kg/injection, schedule: Q01DX009 (ip), vehicle: saline with Tween-80.

Structures are written as SMILES. The list does not hold the whole screen: it gathers tests that were run many times, whatever their T/C, doses with no T/C, and many T/C values between a quarter and a half above the control. Other doses and runs of a compound stand elsewhere. T/C gives the treated animals as a percentage of the vehicle group. Some entries give survivors of the animals treated and no T/C: the source holds a T/C of zero for them, seemingly a mark for toxic or unscored doses. Some doses without a T/C left all or most animals alive at the check, yet need not have been tolerated: survival well below the control is almost never listed, so the zero probably covers shortened survival too. Counts of survivors are from the toxicity check (mostly the fifth day) where no day follows; animals may have died later. Schedules are NCI's codes, taken here to give the interval after Q, in days (D) or hours (H), and the number of doses after X. Some molecules as drawn cover several salts, stereoisomers or complexes of the source; a dose is that of the sample tested. Some doses were run more than once; the results are listed from low to high. Where survival is the endpoint, this PubChem deposit counts one and a half times the control or more as active, and values a quarter to a half above the control carry no call in these data; other NCI protocols may use other cut-offs.

`CN(C)CCCN1c2ccccc2S(=O)c2ccc(Cl)cc21` (centres undefined): the survivor count under setting [1] is recorded as 5 of 10.
`CCC[CH2][Sn]([CH2]CCC)([CH2]CCC)[O]C(=O)CC[S][Sn]([CH2]CCC)([CH2]CCC)[CH2]CCC`: the survivor count (dose: 4.0 mg/kg/injection, schedule: Q01DX009 (ip), vehicle: saline with Tween-80) is on record as 5 of 10.
As to `COC(=O)[C@H]1[C@H]2C[C@@H]3c4[nH]c5cc(OC)ccc5c4CCN3C[C@H]2C[C@@H](OC(=O)/C=C/c2cc(OC)c(OC)c(OC)c2)[C@@H]1OC`, the survivor count is listed as 10 of 10 (dose: 0.09 mg/kg/injection, schedule: Q01DX009 (ip), vehicle: Klucel (hydroxypropylcellulose) (HPC)); 10 of 10 (dose: 0.19 mg/kg/injection, schedule: Q01DX009 (ip), vehicle: Klucel (hydroxypropylcellulose) (HPC)); 10 of 10 (dose: 3.12 mg/kg/injection, schedule: Q01DX009 (ip), vehicle: Klucel (hydroxypropylcellulose) (HPC)); 10 of 10 (dose: 6.25 mg/kg/injection, schedule: Q01DX009 (ip), vehicle: Klucel (hydroxypropylcellulose) (HPC)); 10 of 10 (dose: 12.5 mg/kg/injection, schedule: Q01DX009 (ip), vehicle: Klucel (hydroxypropylcellulose) (HPC)); 8 of 10 under setting [2]. Also, the survivor count under setting [3] is given as 7 of 10.
On to `CCSc1nc2nccnc2c(=O)[nH]1`, for which the survivor count under setting [4] is 0 of 10.
Consider `CCN(CC)CCCC(C)Nc1cc(/C=C/c2ccc(Cl)cc2)nc2cc(N(C)C)ccc12` (centres undefined), for which the survivor count is 2 of 10 under setting [2] and 0 of 10 under setting [3].
As to `CC(C)(C)NC/C(=C\c1ccccc1)C(=O)c1ccccc1`, the survivor count is, setting by setting: under setting [3], 7 of 10; (dose: 50.0 mg/kg/injection, schedule: Q04DX003 (ip), vehicle: saline with Tween-80) 9 of 10; (dose: 100.0 mg/kg/injection, schedule: Q04DX003 (ip), vehicle: saline with Tween-80) 5 of 10.
For `Cc1ccc(Cl)cc1NC(=O)Nc1ccc(Cl)c(Cl)c1`, the survivor count (dose: 300.0 mg/kg/injection, schedule: Q01DX009 (ip), vehicle: Klucel (hydroxypropylcellulose) (HPC)) is 10 of 10.
Regarding `CCCN(CCC)CC(C)=O`, the survivor count (dose: 400.0 mg/kg/injection, schedule: Q04DX003 (ip), vehicle: Klucel (hydroxypropylcellulose) (HPC)) is 0 of 10.
Consider `Nc1ncc(CNc2ccc(C(=O)NC(CCC(=O)O)C(=O)O)cc2)c(N)n1` (centres undefined), for which the survivor count reads like this: under setting [5], 9 of 10; under setting [6], 10 of 10; under setting [4], 10 of 10.
Take `[Cl][Hg][c]1ccc2ccccc2c1`: the survivor count is listed as 7 of 10 (dose: 25.0 mg/kg/injection, schedule: Q01DX009 (ip), vehicle: gum acacia) and 0 of 10 (dose: 50.0 mg/kg/injection, schedule: Q01DX009 (ip), vehicle: gum acacia).
On to `Cc1c2c(ccc3ccccc32)c[n+]2ccccc12`, for which the survivor count runs as follows: (dose: 25.0 mg/kg/injection, schedule: Q01DX009 (ip), vehicle: suspension in saline) 0 of 10; (dose: 50.0 mg/kg/injection, schedule: Q01DX009 (ip), vehicle: suspension in saline) 0 of 10.
Consider `NC(N)=Nc1nc2ccccc2s1`, for which, under setting [7], the survivor count was 9 of 10.
Take `FC(F)(F)c1ccc2c(c1)N(CCCN1CCN(CCN3CCCCC3)CC1)c1ccccc1S2`: where the note is “dose: 3.12 mg/kg/injection, schedule: Q01DX009 (ip), vehicle: saline”, the T/C was 126 % of control. In addition, the survivor count is, setting by setting: (dose: 12.5 mg/kg/injection, schedule: Q01DX009 (ip), vehicle: saline) 10 of 10; (dose: 25.0 mg/kg/injection, schedule: Q01DX009 (ip), vehicle: saline) 9 of 10; (dose: 50.0 mg/kg/injection, schedule: Q01DX009 (ip), vehicle: saline) 8 of 10.
With `COc1cc(NC(=O)CC(C)=O)cc(OC)c1OC`, the T/C under setting [1] was 125 % of control.
Turning to `c1ccc2c(c1)nnn1c3cnccc3nc21`, the T/C under setting [8] was 138 % of control. The survivor count was 5 of 10 and 8 of 10 under setting [9]; 0 of 10 under setting [10].
With `O=C1NC(Cc2ccc(N(CCCl)CCCl)cc2)C(=O)O1` (centres undefined), the T/C is, setting by setting: (dose: 0.78 mg/kg/injection, schedule: Q01DX009 (ip), vehicle: saline with Tween-80) 126 % of control; (dose: 1.5 mg/kg/injection, schedule: Q01DX009 (ip), vehicle: saline with Tween-80) 138 % of control; under setting [8], 147 % of control. Further, the survivor count is, setting by setting: under setting [11], 6 of 6; (dose: 12.0 mg/kg/injection, schedule: Q01DX009 (ip), vehicle: saline with Tween-80) 10 of 10; under setting [9], 6 of 6.
Take `O=C1c2ccc(Br)cc2-c2cc(Br)ccc21`: the survivor count is 10 of 10 under setting [10]; 10 of 10 under setting [12]; 10 of 10 under setting [13]; 10 of 10 (dose: 400.0 mg/kg/injection, schedule: Q01DX009 (ip), vehicle: saline with Tween-80).
With `Cc1cc(Cl)ccc1NC(=O)COc1ccc(Cl)cc1`, the survivor count is given as 10 of 10 under setting [3], 10 of 10 under setting [5] and 10 of 10 under setting [6].
For `CC(N)Cc1ccc2c(c1)OCO2` (centres undefined), the survivor count was 4 of 10 (dose: 100.0 mg/kg/injection, schedule: Q01DX009 (ip), vehicle: saline); 4 of 10 under setting [1]; 0 of 10 (dose: 400.0 mg/kg/injection, schedule: Q01DX009 (ip), vehicle: saline).
Turning to `ClC(Cl)=C(Cl)Cl`, the survivor count under setting [13] is 10 of 10 and the survivor count (dose: 800.0 mg/kg/injection, schedule: Q01DX009 (ip), vehicle: Klucel (hydroxypropylcellulose) (HPC)) was 1 of 9.
For the molecule `Clc1ccc2nc(CBr)cnc2c1`, the survivor count under setting [14] is given as 6 of 6, the survivor count under setting [9] is reported as 6 of 6 and the survivor count under setting [10] is given as 4 of 6.
Regarding `O=C(CCCN1CCN(c2ccccn2)CC1)c1ccc(F)cc1`, the survivor count runs as follows: under setting [11], 7 of 10; under setting [14], 9 of 10; under setting [9], 8 of 10; under setting [10], 8 of 10; under setting [12], 8 of 10.
Turning to `O=Cc1ccc([N+](=O)[O-])s1`, the survivor count is, setting by setting: under setting [10], 6 of 10; under setting [12], 1 of 10.
For `S=c1sc2ccccc2n1CN(c1ccccc1)c1ccc2ccccc2c1`, the survivor count (dose: 200.0 mg/kg/injection, schedule: Q04DX003 (ip), vehicle: saline with Tween-80) was 10 of 10 and the survivor count (dose: 400.0 mg/kg/injection, schedule: Q04DX003 (ip), vehicle: saline with Tween-80) is recorded as 10 of 10.
For the molecule `Cc1cccc(NC(=O)Nc2ccccc2Cl)c1C`, the survivor count is 10 of 10 under setting [5], 10 of 10 under setting [6] and 10 of 10 under setting [4].
With `C[C@@H]1C[C@](O)([C@@H](C)Cl)C(=O)O[C@@H]2CCN3CC=C(COC(=O)[C@]1(C)O)[C@H]23`, where the note is “dose: 44.0 mg/kg/injection, schedule: Q01DX009 (ip), vehicle: saline”, the survivor count is reported as 6 of 6.
Take `Oc1ccc2ccc3[nH]cnc3c2c1`: the survivor count under setting [7] is 10 of 10.
As to `CC[PH+](CC)CC[S-].CC[PH+](CC)CC[S-].[Au+].[Au+]`, the survivor count (dose: 80.0 mg/kg/injection, schedule: Q01DX009 (ip), vehicle: Klucel (hydroxypropylcellulose) (HPC)) is on record as 0 of 10.

(Values after PubChem BioAssay AID192 (DTP/NCI, 2004).)
